According to the supplement of paper PMC7666118:
The list shows a part of the results.

Chains of the proteins cited; added tags and fusions are not shown. Lines headed by an entry give the natural chain unless they say otherwise; changes in a name come on top.
UniProt P61225: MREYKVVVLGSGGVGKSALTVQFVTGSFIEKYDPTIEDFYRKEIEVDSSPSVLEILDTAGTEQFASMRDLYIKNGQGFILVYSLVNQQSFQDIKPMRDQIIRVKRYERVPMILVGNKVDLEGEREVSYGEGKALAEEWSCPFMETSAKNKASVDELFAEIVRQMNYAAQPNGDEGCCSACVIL
UniProt P98179: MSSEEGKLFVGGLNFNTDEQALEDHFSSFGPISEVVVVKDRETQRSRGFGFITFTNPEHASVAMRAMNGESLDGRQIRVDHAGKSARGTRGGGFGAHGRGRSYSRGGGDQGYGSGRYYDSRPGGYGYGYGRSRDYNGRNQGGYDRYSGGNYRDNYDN
UniProt Q96PM5: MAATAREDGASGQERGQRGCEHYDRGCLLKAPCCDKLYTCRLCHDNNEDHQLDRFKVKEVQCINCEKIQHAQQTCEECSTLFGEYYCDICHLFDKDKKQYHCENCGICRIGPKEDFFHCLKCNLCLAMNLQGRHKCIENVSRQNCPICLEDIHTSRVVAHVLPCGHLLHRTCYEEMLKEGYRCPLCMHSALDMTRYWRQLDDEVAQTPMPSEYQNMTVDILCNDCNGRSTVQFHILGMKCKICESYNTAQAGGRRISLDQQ
UniProt P61026: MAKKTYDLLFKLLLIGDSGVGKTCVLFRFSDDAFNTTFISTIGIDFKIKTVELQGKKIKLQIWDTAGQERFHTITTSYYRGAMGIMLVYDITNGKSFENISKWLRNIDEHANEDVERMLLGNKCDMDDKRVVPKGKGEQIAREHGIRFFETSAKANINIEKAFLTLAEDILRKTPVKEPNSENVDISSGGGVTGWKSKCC
UniProt Q15042: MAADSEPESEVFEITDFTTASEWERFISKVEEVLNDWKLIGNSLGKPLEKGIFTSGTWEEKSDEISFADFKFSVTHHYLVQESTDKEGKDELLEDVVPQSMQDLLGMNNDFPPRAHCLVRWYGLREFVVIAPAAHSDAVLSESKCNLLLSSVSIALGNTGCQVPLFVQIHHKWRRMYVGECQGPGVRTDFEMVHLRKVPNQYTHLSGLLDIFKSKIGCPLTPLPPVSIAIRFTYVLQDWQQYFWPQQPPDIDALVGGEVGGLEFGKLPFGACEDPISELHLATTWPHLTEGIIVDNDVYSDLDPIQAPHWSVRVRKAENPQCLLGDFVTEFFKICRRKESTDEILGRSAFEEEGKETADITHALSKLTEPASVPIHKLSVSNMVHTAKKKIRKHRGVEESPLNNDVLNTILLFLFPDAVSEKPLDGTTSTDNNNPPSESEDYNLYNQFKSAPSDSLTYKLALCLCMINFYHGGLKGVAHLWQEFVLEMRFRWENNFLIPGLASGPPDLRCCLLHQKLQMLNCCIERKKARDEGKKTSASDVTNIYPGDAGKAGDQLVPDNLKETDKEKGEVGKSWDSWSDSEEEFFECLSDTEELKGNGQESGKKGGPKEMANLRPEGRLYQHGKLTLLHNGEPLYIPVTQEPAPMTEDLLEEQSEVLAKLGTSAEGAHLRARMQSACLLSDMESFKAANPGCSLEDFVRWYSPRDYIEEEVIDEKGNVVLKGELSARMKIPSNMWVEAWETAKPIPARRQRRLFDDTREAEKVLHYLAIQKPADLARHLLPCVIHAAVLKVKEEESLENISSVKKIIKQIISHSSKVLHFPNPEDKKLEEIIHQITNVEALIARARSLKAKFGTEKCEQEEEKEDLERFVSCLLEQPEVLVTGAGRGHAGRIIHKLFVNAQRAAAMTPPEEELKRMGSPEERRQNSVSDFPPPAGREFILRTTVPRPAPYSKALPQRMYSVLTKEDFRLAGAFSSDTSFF
UniProt Q16576, whole entry: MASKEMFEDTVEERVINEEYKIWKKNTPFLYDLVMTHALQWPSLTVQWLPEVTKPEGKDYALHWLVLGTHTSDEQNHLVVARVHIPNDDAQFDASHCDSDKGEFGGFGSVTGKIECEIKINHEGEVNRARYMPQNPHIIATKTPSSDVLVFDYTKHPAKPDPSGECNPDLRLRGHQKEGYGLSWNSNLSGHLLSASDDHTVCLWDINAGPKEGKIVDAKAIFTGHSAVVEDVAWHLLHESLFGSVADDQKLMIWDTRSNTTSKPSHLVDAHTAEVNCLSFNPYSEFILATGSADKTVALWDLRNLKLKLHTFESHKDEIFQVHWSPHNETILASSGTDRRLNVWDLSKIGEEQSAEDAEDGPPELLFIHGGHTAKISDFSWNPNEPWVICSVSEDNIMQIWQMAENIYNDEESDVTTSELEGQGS
UniProt Q9H5N1: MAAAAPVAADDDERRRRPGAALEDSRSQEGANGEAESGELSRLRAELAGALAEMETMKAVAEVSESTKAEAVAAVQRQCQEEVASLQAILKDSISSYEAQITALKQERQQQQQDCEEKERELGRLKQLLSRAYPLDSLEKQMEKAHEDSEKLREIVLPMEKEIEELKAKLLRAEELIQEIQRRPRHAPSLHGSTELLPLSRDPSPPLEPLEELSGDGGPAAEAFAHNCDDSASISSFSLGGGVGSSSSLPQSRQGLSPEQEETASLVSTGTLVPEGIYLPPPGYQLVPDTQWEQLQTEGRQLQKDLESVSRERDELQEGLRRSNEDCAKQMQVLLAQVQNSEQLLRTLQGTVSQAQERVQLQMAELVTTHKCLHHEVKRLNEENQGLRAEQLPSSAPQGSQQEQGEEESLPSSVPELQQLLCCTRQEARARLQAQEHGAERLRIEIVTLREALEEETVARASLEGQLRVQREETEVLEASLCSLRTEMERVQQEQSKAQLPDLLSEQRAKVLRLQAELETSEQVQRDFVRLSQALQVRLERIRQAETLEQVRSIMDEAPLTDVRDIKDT
UniProt P48378: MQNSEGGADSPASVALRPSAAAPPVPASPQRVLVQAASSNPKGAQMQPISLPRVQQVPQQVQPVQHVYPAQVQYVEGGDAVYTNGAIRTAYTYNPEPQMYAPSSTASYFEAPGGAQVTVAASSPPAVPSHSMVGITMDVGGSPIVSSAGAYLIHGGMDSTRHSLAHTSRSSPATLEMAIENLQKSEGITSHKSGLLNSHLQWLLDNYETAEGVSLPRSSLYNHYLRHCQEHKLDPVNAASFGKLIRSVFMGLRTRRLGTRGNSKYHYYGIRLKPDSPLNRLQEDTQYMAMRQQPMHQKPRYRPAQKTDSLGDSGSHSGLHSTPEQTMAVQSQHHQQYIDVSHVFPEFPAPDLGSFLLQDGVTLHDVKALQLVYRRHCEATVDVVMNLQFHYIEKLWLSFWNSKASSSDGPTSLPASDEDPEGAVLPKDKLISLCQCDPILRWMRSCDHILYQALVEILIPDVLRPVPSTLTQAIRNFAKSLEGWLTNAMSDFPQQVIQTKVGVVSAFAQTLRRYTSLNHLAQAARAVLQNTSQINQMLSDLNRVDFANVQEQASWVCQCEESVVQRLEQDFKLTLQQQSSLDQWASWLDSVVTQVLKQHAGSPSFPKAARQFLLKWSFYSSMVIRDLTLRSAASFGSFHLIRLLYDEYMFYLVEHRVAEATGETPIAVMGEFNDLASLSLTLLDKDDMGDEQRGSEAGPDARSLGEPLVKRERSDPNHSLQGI
UniProt Q92878: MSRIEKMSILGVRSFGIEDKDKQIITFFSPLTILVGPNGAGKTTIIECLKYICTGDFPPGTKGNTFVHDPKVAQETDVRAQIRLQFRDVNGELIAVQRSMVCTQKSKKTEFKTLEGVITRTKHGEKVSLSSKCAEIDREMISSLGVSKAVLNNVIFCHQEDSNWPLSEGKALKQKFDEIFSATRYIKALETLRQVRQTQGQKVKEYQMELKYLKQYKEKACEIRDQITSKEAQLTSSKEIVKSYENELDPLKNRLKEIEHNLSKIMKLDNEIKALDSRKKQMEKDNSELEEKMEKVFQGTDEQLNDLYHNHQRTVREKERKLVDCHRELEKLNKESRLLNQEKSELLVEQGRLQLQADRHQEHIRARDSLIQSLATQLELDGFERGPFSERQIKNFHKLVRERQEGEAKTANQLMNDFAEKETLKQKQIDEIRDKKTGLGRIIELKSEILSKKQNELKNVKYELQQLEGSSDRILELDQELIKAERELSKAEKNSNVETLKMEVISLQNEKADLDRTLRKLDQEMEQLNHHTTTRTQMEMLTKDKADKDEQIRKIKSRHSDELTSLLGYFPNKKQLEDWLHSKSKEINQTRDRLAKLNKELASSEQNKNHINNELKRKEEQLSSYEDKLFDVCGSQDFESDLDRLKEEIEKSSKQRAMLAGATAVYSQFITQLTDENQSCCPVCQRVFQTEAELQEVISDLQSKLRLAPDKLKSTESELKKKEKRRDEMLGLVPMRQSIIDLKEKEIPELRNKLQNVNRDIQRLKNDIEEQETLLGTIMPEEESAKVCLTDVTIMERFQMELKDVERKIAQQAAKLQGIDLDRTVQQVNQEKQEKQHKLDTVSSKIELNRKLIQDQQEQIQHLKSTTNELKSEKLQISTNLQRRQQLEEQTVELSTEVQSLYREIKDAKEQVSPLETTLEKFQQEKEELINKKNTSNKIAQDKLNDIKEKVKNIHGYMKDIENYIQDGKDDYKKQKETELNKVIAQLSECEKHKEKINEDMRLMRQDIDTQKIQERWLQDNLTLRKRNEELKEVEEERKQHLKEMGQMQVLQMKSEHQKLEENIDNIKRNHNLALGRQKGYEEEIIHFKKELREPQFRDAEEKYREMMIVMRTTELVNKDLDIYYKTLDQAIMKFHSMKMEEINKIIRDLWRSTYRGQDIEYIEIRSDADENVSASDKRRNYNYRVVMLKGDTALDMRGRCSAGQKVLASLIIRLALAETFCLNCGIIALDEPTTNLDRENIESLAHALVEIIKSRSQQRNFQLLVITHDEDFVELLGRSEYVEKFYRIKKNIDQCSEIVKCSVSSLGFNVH
UniProt Q9UL25: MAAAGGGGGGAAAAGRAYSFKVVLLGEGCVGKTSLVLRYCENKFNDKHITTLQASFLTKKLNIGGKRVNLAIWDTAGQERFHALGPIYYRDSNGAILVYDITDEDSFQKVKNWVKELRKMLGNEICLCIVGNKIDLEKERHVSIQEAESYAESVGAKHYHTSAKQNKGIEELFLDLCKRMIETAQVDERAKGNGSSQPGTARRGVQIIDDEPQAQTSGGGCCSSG
UniProt O75943: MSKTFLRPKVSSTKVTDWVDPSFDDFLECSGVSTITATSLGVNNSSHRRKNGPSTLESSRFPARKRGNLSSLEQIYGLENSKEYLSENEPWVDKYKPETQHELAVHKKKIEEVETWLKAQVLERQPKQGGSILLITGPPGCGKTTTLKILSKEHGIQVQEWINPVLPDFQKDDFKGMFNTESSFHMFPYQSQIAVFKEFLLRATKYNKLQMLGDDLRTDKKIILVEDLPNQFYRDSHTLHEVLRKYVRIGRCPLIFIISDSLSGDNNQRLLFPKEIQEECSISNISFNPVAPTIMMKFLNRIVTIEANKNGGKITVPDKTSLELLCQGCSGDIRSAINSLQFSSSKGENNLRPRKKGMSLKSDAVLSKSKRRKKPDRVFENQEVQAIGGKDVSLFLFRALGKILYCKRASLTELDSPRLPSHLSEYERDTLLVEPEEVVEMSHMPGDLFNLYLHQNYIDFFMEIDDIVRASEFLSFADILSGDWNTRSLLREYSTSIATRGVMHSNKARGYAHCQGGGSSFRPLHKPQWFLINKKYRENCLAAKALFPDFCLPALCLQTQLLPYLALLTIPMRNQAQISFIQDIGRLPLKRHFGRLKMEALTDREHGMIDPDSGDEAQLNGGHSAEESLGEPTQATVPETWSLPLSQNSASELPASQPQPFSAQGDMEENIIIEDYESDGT
UniProt O60671: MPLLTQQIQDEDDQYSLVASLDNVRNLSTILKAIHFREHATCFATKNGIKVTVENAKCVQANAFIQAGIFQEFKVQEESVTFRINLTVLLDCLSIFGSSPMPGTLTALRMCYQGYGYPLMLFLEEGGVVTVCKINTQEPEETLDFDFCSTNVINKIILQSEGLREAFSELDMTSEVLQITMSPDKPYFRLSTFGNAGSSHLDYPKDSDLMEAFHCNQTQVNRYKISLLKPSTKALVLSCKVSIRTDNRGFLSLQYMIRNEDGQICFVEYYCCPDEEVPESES
UniProt Q7Z7A4: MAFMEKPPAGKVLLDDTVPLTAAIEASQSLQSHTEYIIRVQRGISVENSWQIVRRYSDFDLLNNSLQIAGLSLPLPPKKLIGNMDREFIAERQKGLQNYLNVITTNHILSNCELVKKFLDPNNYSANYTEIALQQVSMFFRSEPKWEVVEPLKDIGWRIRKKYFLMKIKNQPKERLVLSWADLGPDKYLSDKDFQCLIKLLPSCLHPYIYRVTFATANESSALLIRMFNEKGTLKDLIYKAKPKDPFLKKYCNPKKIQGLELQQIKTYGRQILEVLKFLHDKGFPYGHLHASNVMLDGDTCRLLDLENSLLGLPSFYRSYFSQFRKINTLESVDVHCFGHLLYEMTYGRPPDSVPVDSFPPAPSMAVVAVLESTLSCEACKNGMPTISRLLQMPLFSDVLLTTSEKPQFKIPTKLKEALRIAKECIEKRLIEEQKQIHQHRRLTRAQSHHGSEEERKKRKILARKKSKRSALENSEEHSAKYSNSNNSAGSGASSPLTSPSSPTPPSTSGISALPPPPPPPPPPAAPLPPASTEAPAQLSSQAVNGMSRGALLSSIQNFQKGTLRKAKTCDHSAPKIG

compound: COc1ccc(Cn2ccc3cc(C)c(C(=O)NO)cc32)cc1; assay: dose-dependent thermal stabilisation call (2D-TPP, DLPTP, 10% FDR) (binary (1 = stabilised)); higher = stabilised by the compound; conditions: system: HL-60 intact cells; concentration range 0.04-10 µM
Protocol: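 2D thermal proteome profiling in intact HL-60 cells treated with BRD-3811 (0, 0.04, 0.29, 2, 10 uM) for 90 min at 37 C, then heated 3 min at one of 12 temperatures (42-63.9 C). Soluble protein was quantified by TMT10 MS. The value is the DLPTP call of the paper: dose-dependent thermal stabilisation over all temperatures at 10% FDR (F-test of a dose-response against a flat model); one experiment, one call per tested protein.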

Row | Target | dose-dependent thermal stabilisation call
1 | RFC4 (UniProt P35249) | inactive: 0
2 | RAB1A (UniProt P62820) | inactive: 0
3 | PUM2 (UniProt Q8TB72) | inactive: 0
4 | RAB11FIP1 (UniProt Q6WKZ4) | inactive: 0
5 | RAB31 (UniProt Q13636) | inactive: 0
6 | RABEP1 (UniProt Q15276) | inactive: 0
7 | RAP2B (UniProt P61225) | inactive: 0
8 | RAD21 (UniProt O60216) | inactive: 0
9 | RBM3 (UniProt P98179) | inactive: 0
10 | RCHY1 (UniProt Q96PM5) | inactive: 0
11 | RNF126 (UniProt Q9BV68) | inactive: 0
12 | RAB10 (UniProt P61026) | inactive: 0
13 | RFXAP (UniProt O00287) | inactive: 0
14 | RABGGTB (UniProt P53611) | inactive: 0
15 | RAB35 (UniProt Q15286) | inactive: 0
16 | RABL4 (UniProt Q9BW83) | inactive: 0
17 | RAB3GAP (UniProt Q15042) | inactive: 0
18 | RNF113A (UniProt O15541) | inactive: 0
19 | RBBP7 (UniProt Q16576) | inactive: 0
20 | RABEP2 (UniProt Q9H5N1) | inactive: 0

From entry 16 up to 18, copied from above:
Row | Target | dose-dependent thermal stabilisation call
16 | RABL4 (UniProt Q9BW83) | inactive: 0
17 | RAB3GAP (UniProt Q15042) | inactive: 0
18 | RNF113A (UniProt O15541) | inactive: 0

The listing continues:

Row | Target | dose-dependent thermal stabilisation call
21 | RAB11B (UniProt Q15907) | inactive: 0
22 | RBBP8 (UniProt Q99708) | inactive: 0
23 | RAB32 (UniProt Q13637) | inactive: 0
24 | RELA (UniProt Q04206) | inactive: 0
25 | RAB33A (UniProt Q14088) | inactive: 0
26 | RFX2 (UniProt P48378) | inactive: 0
27 | RNF10 (UniProt Q8N5U6) | inactive: 0
28 | RAD50 (UniProt Q92878) | inactive: 0
29 | RNF20 (UniProt Q5VTR2) | inactive: 0
30 | RHOT2 (UniProt Q8IXI1) | inactive: 0
31 | RAB21 (UniProt Q9UL25) | inactive: 0
32 | RABGAP1L | inactive: 0
33 | RAD17 (UniProt O75943) | inactive: 0
34 | PYCARD (UniProt Q9ULZ3) | inactive: 0
35 | RAD1 (UniProt O60671) | inactive: 0
36 | RAC2 (UniProt P15153) | inactive: 0
37 | RABGAP1 (UniProt Q9Y3P9) | inactive: 0
38 | PXK (UniProt Q7Z7A4) | inactive: 0
39 | RBM34 (UniProt P42696) | inactive: 0
40 | RGS14 (UniProt O43566) | inactive: 0
